Test: Time-dependent and concentration-dependent fluorescence sensing of H2S in PBS buffer
Details: AL1 40 μM
Description: FIG. 3. (A) Time-dependent fluorescence emission (λex: 330 nm) of AL1 (20 μM) in the presence of Na2S (50 μM). (B) Fluorescence intensity (λex: 330 nm) of AL1 ([…]) in response to increasing Na2S concentrations.
The efficiency of AL1 in sensing H2S in PBS buffer (pH 7.4) and at room temperature was also assessed (FIG. 3A). Under these conditions, the resulting fluorescence intensity reached a maximum in less than two minutes, highlighting that our designed probe is not only selective but also highly reactive towards H2S—a necessary feature for detecting analytes which are short-lived. To determine if AL1 could also be used to detect H2S quantitatively in buffer, the resulting fluorescence was measured in response to a series of different concentrations of H2S (FIG. 3B). Indeed, the ensuing fluorescence intensity increased in a linear fashion in the range of 0-20 μM H2S and with a detection limit of 0.05 μM.

CC(=O)NCCS[Se]CC(C)(C)C(=O)Oc1ccc2ccc(=O)oc2c1 [AL1]
detection limit for H2S: 0.05 µM | range of H2S in which fluorescence intensity increased in a linear fashion (increasing Na2S concentrations): 0 to 20 µM
